Record: PubChem BioAssay AID1671195 (Yale University, 2021)

Assay: 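Regulators of LDL receptor activity judged by labelled LDL uptake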 (primary screen)
Cells: human Huh7 hepatoma cells
Reagents: siRNA pool against human genes, 18 nM
Timing: about 2 to 2.5 days of knockdown, then 8 h LDL uptake
Challenge: DiI-labelled LDL at 30 µg/ml for 8 h, in lipoprotein-deficient serum medium
Measured: 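Per-cell DiI-LDL intensity by automated imaging; well means scaled to the plate median and given as a robust z-score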
Reading the numbers: robust z-score: higher = more LDL uptake after knockdown
Call rule: 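a gene counts as active if at least two replicate z-scores exceed ±2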
The deposit covers about 22,000 reagents; shown is a random part of them. Of all reagents, about 1,510 (6.9%) got an active call. 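Active includes knockdowns raising or lowering LDL uptake; positive z-scores mean more uptake, negative mean less.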 The numbers tell different reagents against one gene apart. No sequences are given here.

no.	Target gene	reagent	robust z-score, replicate 1	robust z-score, replicate 2	robust z-score, replicate 3	activity call
1	RRP9	1	2.24	-0.105	0.56	inactive
2	FXR1	1	1.96	-0.183	-0.0943	inactive
3	MYPN	1	-0.763	-1.21	-0.983	inactive
4	BEX5	1	-1.26	-1.68	-1.37	inactive
5	IL20RB	1	-0.128	1.48	-0.761	inactive
6	EAPP	1	-0.275	-1.7	-0.559	inactive
7	SH3D19	1	-0.876	-1.12	-0.425	inactive
8	WDR46	1	-0.295	-1.3	-0.82	inactive
9	IFNE	1	-0.431	-0.45	-0.342	inactive
10	ITGA9	1	0.95	-1.04	-1.07	inactive
11	ADAM19	1	1.38	0.594	1.58	inactive
12	CADM1	1	-1.91	-0.809	-0.232	inactive
13	INTS4	1	-1.81	-1.25	-1.58	inactive
14	LOC402037 (retired record)	1	-0.982	-0.683	-1	inactive
15	PANK2	1	-0.649	0.0998	0.347	inactive
16	LOC441010 (retired record)	1	-0.271	-0.391	0.336	inactive
17	FAM180B	1	1.49	-1.2	-1.28	inactive
18	SSNA1	1	0.584	-0.969	-0.566	inactive
19	LOC439946 (retired record)	1	-0.646	-0.238	-0.0599	inactive
20	RIMS3	1	0.321	-0.264	1.91	inactive
21	TNFSF9	1	0.132	-0.0972	-0.678	inactive
22	RALGAPA2	1	-0.188	0.0144	0.464	inactive
23	IRF8	1	3.65	3.98	4.21	active
24	LOC399924 (retired record)	1	-1.05	-1.37	-1.32	inactive
25	LOC388206 (retired record)	1	-0.699	-0.779	-0.648	inactive
26	TAS2R19	1	0.772	0.689	0.89	inactive
27	MIR22HG	1	-0.0246	0.259	0.46	inactive
28	ATG14	1	1.17	0.841	1.11	inactive
29	MAFF	1	-1.26	-2.51	-0.706	inactive
30	CTTNBP2	1	-0.52	-0.626	-1.42	inactive
31	LOC339306 (retired record)	1	0.711	0.944	0.961	inactive
32	ZNF815P	1	-0.0453	-1.24	-0.977	inactive
33	ENPEP	1	1.19	1.12	0.785	inactive
34	ICA1L	1	0.57	0.829	0.117	inactive
35	ICA1L	2	-0.152	0.202	-0.155	inactive
36	NSFL1C	1	-0.0445	0.0988	0.0395	inactive
37	MSMO1	1	-0.977	0.0658	-1.43	inactive

Already shown: entries from further up.
no.	Target gene	reagent	robust z-score, replicate 1	robust z-score, replicate 2	robust z-score, replicate 3	activity call
18	SSNA1	1	0.584	-0.969	-0.566	inactive
19	LOC439946 (retired record)	1	-0.646	-0.238	-0.0599	inactive
20	RIMS3	1	0.321	-0.264	1.91	inactive
21	TNFSF9	1	0.132	-0.0972	-0.678	inactive
22	RALGAPA2	1	-0.188	0.0144	0.464	inactive
23	IRF8	1	3.65	3.98	4.21	active
24	LOC399924 (retired record)	1	-1.05	-1.37	-1.32	inactive
25	LOC388206 (retired record)	1	-0.699	-0.779	-0.648	inactive
26	TAS2R19	1	0.772	0.689	0.89	inactive
27	MIR22HG	1	-0.0246	0.259	0.46	inactive

Additional entries follow:
no.	Target gene	reagent	robust z-score, replicate 1	robust z-score, replicate 2	robust z-score, replicate 3	activity call
38	CD44	1	1.6	1	0.749	inactive
39	PDCD1	1	-0.408	-1.64	-0.247	inactive
40	LYPD3	1	0.551	1.83	0.633	inactive
41	GATA4	1	-1.4	-0.987	-1.16	inactive
42	KSR1	1	-0.638	-0.59	-0.587	inactive
43	LOC388278 (retired record)	1	0.254	0.147	-0.211	inactive
44	NKX2-3	1	-0.178	-0.55	-0.237	inactive
45	SPEM2	1	-1.22	-0.917	0.0284	inactive
46	CDH20	1	0.273	0.164	0.112	inactive
47	SUGP1	1	0.302	-0.269	0.25	inactive
48	NOL4	1	-0.238	0.387	1.68	inactive
49	ITGA5	1	0.988	-0.623	-0.471	inactive
50	MITD1	1	1.28	-0.379	-0.13	inactive
51	TIMM9	1	0.447	1.72	1.4	inactive
52	B3GNT5	1	-1.06	0.682	-0.524	inactive
53	UNC5C	1	-1.25	-1	-1.27	inactive
54	SPRYD4	1	-0.919	-0.905	-0.878	inactive
55	EIF2S2	1	-1.22	-1.06	-1.1	inactive
56	FSTL4	1	-0.744	-0.221	-0.464	inactive
57	CACNG7	1	-0.308	-0.705	-0.00144	inactive
58	TBR1	1	1.34	2.7	2.23	active
59	GARIN4	1	0.305	-0.605	0.692	inactive
60	C12orf71	1	-0.102	-0.249	0.0558	inactive
61	RHD	1	1.41	3.04	2.03	active
62	PPP1R12C	1	-1.83	-1.4	-1.56	inactive
63	MICU3	1	-0.456	-0.675	-0.584	inactive
64	RFX2	1	0.771	0.57	0.713	inactive
65	SCAPER	1	0.875	-1.06	0.417	inactive
66	HEATR5B	1	0.57	0.564	0.82	inactive
67	LOC389372 (retired record)	1	-0.156	0.202	-0.264	inactive
68	ADCY3	1	1.08	0.62	1.59	inactive
